The data set can be described thus: peptide synthesis. Conditions: conjugation step; for final HPLC purity: 210 nm.

Some peptides are written in HELM: one residue between dots, names in brackets for other building blocks, links after the first $. *: point of attachment. S(CH2)2OCO2(CPT-20-yl) = CC[C@@]1(OC(=O)OCCS*)C(=O)OCc2c1cc1n(c2=O)Cc2cc3ccccc3nc2-1

Take “PEPTIDE1{G.C.G.G.P.L.Y.K.K.I.I.K.K.L.L.E.S.G.G.[Ala(Tz-alk-CPT)].G.G.A.P.L.Y.K.K.I.I.K.K.L.C.E.S.[am]}$PEPTIDE1,PEPTIDE1,2:R3-34:R3$$$V2.0”: under “TFA salt”, the “final HPLC purity” value is given as “Purity = 92%” and the conjugation yield is given as 26%.

On to “cyclo(APLYKKIIKKLLESGGC(S(CH2)2OCO2(CPT-20-yl))GGAPLYKKIIKKLLESGGSGG)”, for which the “final HPLC purity” value (TFA salt) worked out at 96%. In addition, for the setting “on cPDIP 2, mass of TFA salt”, the conjugation yield is reported as 38%. In the case of “PEPTIDE1{G.C.G.G.P.L.Y.K.K.I.I.K.K.L.L.E.S.G.G.[Ala(Tz-PEG1-VC-PAB-CPT)].G.G.A.P.L.Y.K.K.I.I.K.K.L.C.E.S.[am]}$PEPTIDE1,PEPTIDE1,2:R3-34:R3$$$V2.0”, for the setting “TFA salt”, the conjugation yield is reported as 40%.

The values above are taken from paper PMC11747586 (Chemical Biology & Drug Design, 2025).
